Test results: the supplement of paper PMC10849652
The list shows a part of the results.

The chains behind the UniProt entries cited, without tags or fusion partners. Where a name states a change or a piece, a line headed by the entry shows the natural chain unless it says otherwise.
UniProt P02810: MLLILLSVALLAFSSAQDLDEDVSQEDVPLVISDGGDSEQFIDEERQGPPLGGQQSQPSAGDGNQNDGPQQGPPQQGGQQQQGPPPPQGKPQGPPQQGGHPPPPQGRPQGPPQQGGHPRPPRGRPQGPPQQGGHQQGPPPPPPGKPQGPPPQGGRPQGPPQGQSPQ
UniProt Q8NI37: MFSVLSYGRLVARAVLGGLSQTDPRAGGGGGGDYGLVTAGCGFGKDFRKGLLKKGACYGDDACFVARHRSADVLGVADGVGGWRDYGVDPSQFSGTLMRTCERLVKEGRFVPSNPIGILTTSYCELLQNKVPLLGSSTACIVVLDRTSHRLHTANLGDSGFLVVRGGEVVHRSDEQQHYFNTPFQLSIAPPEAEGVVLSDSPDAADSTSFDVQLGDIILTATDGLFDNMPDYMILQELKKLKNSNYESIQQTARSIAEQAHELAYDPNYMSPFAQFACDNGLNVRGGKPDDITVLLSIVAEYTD
UniProt Q86UA1: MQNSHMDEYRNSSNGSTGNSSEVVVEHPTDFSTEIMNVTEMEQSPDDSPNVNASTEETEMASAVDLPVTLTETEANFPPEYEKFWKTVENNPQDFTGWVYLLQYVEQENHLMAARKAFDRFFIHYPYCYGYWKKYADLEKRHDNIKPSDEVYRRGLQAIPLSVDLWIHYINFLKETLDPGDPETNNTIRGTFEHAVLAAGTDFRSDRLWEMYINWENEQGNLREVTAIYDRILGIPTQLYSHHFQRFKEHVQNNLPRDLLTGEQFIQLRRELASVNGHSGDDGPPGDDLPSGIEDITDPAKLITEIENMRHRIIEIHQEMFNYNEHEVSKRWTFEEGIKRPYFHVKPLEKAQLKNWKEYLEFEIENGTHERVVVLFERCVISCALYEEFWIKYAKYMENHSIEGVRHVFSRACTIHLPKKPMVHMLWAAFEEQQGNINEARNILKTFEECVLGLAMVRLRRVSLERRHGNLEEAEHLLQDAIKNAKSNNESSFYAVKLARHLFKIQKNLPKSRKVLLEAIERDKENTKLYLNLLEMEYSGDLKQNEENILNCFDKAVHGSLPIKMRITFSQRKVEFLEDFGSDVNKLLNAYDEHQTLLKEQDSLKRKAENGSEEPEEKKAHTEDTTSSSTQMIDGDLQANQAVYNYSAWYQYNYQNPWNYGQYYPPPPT
UniProt Q8N945: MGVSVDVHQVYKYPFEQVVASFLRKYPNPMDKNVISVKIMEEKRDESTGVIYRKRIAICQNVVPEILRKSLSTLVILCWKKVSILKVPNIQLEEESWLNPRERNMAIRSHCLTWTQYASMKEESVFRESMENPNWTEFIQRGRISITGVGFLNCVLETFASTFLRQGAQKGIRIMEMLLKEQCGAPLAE
UniProt O60237: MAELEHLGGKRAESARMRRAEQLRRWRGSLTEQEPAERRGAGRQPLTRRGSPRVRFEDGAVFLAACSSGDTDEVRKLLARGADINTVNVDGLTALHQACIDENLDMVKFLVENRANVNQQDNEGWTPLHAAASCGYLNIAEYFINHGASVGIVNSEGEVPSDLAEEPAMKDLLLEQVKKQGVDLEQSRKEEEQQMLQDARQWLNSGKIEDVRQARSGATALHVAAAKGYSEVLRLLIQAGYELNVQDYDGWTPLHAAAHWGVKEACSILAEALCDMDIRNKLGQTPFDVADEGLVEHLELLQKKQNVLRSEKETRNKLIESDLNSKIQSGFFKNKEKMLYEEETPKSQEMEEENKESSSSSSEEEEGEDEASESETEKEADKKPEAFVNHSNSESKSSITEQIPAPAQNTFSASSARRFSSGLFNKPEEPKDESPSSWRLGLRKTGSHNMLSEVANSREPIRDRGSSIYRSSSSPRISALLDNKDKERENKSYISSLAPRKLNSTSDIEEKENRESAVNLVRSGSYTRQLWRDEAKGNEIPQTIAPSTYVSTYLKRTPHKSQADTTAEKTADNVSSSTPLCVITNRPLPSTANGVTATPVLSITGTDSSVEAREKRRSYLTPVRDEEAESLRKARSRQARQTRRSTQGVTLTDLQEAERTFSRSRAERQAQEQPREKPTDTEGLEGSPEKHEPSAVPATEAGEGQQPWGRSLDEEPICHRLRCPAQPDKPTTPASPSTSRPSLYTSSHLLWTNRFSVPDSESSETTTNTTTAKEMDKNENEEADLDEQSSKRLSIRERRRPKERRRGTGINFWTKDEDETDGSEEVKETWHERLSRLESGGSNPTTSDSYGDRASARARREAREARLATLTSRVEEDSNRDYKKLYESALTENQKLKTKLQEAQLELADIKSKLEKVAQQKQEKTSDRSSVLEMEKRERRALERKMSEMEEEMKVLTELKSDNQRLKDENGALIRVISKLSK
UniProt Q9Y3B1: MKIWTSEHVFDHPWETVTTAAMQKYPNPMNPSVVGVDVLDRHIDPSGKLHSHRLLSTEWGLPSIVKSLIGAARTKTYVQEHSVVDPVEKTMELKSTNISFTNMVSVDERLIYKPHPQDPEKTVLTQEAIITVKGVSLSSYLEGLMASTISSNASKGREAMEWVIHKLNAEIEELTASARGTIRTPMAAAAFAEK
UniProt P14222: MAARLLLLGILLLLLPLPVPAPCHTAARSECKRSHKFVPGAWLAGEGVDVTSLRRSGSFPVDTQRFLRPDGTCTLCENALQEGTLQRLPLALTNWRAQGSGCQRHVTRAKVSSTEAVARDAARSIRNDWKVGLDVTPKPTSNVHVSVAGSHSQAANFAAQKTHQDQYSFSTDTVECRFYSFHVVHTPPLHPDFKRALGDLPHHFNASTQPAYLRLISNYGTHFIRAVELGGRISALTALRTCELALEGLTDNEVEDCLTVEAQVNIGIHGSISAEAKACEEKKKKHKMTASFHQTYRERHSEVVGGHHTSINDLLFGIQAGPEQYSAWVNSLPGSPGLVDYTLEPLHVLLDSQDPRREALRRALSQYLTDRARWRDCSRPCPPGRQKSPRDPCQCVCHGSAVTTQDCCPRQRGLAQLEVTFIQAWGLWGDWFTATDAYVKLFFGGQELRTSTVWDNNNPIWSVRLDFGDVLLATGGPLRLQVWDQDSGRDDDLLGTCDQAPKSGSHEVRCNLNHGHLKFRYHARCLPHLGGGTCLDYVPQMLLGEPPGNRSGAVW
UniProt Q86XN7: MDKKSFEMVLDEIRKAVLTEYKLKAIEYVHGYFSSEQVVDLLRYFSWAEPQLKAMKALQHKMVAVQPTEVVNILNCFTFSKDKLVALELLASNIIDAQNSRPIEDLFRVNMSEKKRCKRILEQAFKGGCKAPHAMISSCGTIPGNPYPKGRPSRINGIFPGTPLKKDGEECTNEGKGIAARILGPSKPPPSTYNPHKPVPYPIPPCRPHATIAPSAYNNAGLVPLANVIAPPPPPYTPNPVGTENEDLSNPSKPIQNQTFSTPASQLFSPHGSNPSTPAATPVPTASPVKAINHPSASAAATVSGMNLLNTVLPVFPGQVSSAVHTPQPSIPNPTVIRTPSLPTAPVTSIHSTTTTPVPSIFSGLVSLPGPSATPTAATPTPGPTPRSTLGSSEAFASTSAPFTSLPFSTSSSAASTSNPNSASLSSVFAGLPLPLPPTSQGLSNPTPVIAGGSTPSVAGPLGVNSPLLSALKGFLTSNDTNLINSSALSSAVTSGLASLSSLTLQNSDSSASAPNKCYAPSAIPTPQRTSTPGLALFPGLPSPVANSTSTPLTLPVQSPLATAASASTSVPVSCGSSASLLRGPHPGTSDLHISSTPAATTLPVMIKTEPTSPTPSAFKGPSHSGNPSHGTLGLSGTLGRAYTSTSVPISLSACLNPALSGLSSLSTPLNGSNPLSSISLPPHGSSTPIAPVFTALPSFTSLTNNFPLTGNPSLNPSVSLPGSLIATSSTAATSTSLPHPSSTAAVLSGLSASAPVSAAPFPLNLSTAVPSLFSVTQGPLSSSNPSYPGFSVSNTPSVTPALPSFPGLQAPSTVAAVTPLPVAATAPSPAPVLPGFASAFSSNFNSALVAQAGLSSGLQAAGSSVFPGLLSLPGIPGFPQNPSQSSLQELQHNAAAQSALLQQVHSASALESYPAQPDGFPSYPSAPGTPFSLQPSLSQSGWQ
UniProt O95685: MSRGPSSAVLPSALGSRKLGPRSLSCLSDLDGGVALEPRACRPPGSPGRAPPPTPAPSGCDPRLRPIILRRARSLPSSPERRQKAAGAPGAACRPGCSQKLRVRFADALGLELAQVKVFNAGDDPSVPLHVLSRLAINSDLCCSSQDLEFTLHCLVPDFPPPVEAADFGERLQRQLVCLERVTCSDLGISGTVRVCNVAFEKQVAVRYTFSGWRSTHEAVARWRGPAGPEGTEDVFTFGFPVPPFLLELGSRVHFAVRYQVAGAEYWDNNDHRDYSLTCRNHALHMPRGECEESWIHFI
UniProt Q9Y5P8: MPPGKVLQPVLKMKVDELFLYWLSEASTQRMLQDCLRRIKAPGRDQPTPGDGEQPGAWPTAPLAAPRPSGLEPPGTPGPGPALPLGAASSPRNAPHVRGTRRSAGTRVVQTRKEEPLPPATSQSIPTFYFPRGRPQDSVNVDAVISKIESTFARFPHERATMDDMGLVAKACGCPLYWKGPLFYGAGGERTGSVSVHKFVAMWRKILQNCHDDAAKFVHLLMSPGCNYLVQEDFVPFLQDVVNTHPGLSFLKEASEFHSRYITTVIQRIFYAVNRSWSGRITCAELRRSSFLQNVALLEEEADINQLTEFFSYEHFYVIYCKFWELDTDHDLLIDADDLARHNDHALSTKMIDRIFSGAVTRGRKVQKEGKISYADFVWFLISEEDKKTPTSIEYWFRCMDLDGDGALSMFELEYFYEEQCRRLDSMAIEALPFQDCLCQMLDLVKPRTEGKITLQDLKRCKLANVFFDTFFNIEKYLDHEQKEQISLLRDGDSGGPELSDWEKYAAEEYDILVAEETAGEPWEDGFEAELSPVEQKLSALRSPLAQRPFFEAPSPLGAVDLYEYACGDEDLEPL
UniProt Q96I34: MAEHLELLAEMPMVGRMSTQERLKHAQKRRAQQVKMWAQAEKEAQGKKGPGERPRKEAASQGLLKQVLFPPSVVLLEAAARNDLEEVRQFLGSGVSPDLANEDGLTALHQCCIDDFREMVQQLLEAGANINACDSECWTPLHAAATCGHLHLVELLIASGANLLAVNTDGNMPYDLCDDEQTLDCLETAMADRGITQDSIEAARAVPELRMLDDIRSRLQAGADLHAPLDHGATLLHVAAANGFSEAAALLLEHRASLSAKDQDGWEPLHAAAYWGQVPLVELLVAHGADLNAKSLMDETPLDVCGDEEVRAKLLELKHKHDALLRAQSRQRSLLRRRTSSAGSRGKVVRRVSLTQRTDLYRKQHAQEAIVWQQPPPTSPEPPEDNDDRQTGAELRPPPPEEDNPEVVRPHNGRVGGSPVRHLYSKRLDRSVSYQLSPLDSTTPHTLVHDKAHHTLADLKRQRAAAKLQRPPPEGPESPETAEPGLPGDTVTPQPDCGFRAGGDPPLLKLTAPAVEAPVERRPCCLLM

Key:
Assay in all cases: log2 fold change, soluble protein after heating vs DMSO (PISA); higher = thermal stabilisation; K562 cells, 10 uM, 30 min; active = over 0.2 and 3.5 SD of the protein, either way, in both replicates (recomputed)
nilotinib = compound: Cc1cn(-c2cc(NC(=O)c3ccc(C)c(Nc4nccc(-c5cccnc5)n4)c3)cc(C(F)(F)F)c2)cn1 [nilotinib]
Method in brief: (§1)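 Thermal stability values are relative to control samples and come from duplicates. They are expressed as log2 fold changes. For measurement, K562 cells (2×10^6 cells/mL) received 10 μM compound for 30 min, and aliquots were heated for 3 min over 48°C-58°C, pooled, and extracted at 4°C in PBS with 0.5% NP-40. Soluble protein, the supernatant after 21,000xg for 90 min, was quantified by TMTpro 16plex LC-MS/MS with equalised channel sums.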

[1] = compound: Cc1nc(Nc2n[nH]c3c2CN(C(=O)N[C@H](CN(C)C)c2ccccc2)C3(C)C)c2sccc2n1
Method in brief: as §1

[2] = compound: Cc1ncc(-c2ccnc(Nc3ccc(S(C)(=O)=O)cc3)n2)n1C(C)C
Method in brief: as §1

crizotinib = compound: C[C@@H](Oc1cc(-c2cnn(C3CCNCC3)c2)cnc1N)c1c(Cl)ccc(F)c1Cl [crizotinib]
Method in brief: as §1

[3] = compound: C[C@@H]1COCCN1C2=NC(=NC(=C2)C3(CC3)S(=O)(=O)C)C4=C5C=CNC5=CC=C4
Method in brief: as §1

gandotinib = compound: Cc1cc(Nc2cc(CN3CCOCC3)c3nc(C)c(Cc4ccc(Cl)cc4F)n3n2)n[nH]1 [gandotinib]
Method in brief: as §1

doramapimod = compound: Cc1ccc(-n2nc(C(C)(C)C)cc2NC(=O)Nc2ccc(OCCN3CCOCC3)c3ccccc23)cc1 [doramapimod]
Method in brief: as §1

[4] = compound: Cc1cccc(CC(=O)N2CCc3c2ccc(-c2cn(C)c4ncnc(N)c24)c3F)n1
Method in brief: as §1

[5] = compound: C[C@H](C1=CC=C(C=C1)C(=O)NC2=C3C=CNC3=NC=C2)N
Method in brief: as §1

duvelisib = compound: C[C@H](Nc1ncnc2nc[nH]c12)c1cc2cccc(Cl)c2c(=O)n1-c1ccccc1 [duvelisib]
Method in brief: as §1

tozasertib = compound: Cc1cc(Nc2cc(N3CCN(C)CC3)nc(Sc3ccc(NC(=O)C4CC4)cc3)n2)n[nH]1 [tozasertib]
Method in brief: as §1

[6] = compound: Cc1cc(SCc2sc(-c3ccc(C(F)(F)F)cc3)nc2C)ccc1OCC(=O)O
Method in brief: as §1

dasatinib = compound: Cc1nc(Nc2ncc(C(=O)Nc3c(C)cccc3Cl)s2)cc(N2CCN(CCO)CC2)n1 [dasatinib]
Method in brief: as §1

[7] = compound: Cn1cc(-c2ccc3c(c2)CCN3C(=O)Cc2cccc(C(F)(F)F)c2)c2c(N)ncnc21
Method in brief: as §1

tipifarnib = compound: Cn1cncc1[C@@](N)(c1ccc(Cl)cc1)c1ccc2c(c1)c(-c1cccc(Cl)c1)cc(=O)n2C [tipifarnib]
Method in brief: as §1

bafetinib = compound: Cc1ccc(NC(=O)c2ccc(CN3CC[C@H](N(C)C)C3)c(C(F)(F)F)c2)cc1Nc1nccc(-c2cncnc2)n1 [bafetinib]
Method in brief: as §1

[8] = compound: CS(=O)(=O)c1ccc(-c2cnc(N)c(C(=O)Nc3ccccc3)n2)cc1
Method in brief: as §1

ispinesib = compound: Cc1ccc(C(=O)N(CCCN)[C@@H](c2nc3cc(Cl)ccc3c(=O)n2Cc2ccccc2)C(C)C)cc1 [ispinesib]
Method in brief: as §1

[9] = compound: Cn1cc(-c2ccc3nnc(C(F)(F)c4ccc5ncccc5c4)n3n2)cn1
Method in brief: as §1

mubritinib = compound: FC(F)(F)c1ccc(/C=C/c2nc(COc3ccc(CCCCn4ccnn4)cc3)co2)cc1 [mubritinib]
Method in brief: as §1

Measured: log2 fold change

PRH1 (UniProt P02810)
inactive: nilotinib -0.942 | [1] 0.272 | [2] -0.033

PPTC7 (UniProt Q8NI37)
inactive: crizotinib -0.039 | [3] 0.001 | gandotinib 0.008 | doramapimod 0.151 | [4] -0.139

PRPF39 (UniProt Q86UA1)
inactive: [5] 0.004 | duvelisib 0.169 | tozasertib 0.25 | [6] 0.181 | dasatinib -0.044 | [7] 0.033 | tipifarnib -0.199

PRELID2 (UniProt Q8N945)
inactive: crizotinib -0.281 | doramapimod 0.147

PPP1R12B isoform 6 (UniProt O60237)
inactive: bafetinib -0.024 | nilotinib -0.004 | [1] -0.191 | [2] 0.007

PRELID3B (UniProt Q9Y3B1)
inactive: [3] -0.061 | gandotinib 0.468 | tozasertib -0.034 | [4] 0.049 | tipifarnib 0.545

Looked up one by one from above, 2 records:
PRELID3B (UniProt Q9Y3B1)
inactive: [3] -0.061 | gandotinib 0.468 | tozasertib -0.034 | [4] 0.049 | tipifarnib 0.545

PRH1 (UniProt P02810)
inactive: nilotinib -0.942 | [1] 0.272 | [2] -0.033

Additional results.

PRF1 (UniProt P14222)
inactive: [8] -0.012 | [3] 0.045 | bafetinib -0.06 | tipifarnib -0.007

PROSER1 (UniProt Q86XN7)
inactive: [8] 0.008 | tozasertib -0.196 | ispinesib -0.118 | [9] 0.145 | tipifarnib 0.03

PPP1R3D (UniProt O95685)
inactive: crizotinib 0.055 | [5] -0.116 | gandotinib 0.069 | tozasertib 0.09 | doramapimod -0.039 | ispinesib 0.043 | bafetinib -0.083 | [4] 0.108 | nilotinib -0.068 | [1] 0.09 | [2] -0.112 | [7] -0.085 | [9] 0.032 | mubritinib 0.192

PPP2R3B (UniProt Q9Y5P8)
inactive: [3] -0.247 | tozasertib 0.06 | nilotinib -0.029 | [1] 0.197 | [2] -0.086 | mubritinib -0.13

PPP1R16A (UniProt Q96I34)
inactive: ispinesib 0.117 | [9] 0.012
